# Measurements from the supplement of paper PMC4604168 (melanoma cell lines).
# The other results are listed elsewhere or left out. Single values are uncertain, as repeats are few or missing.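 The apoptosis fraction was the count of cleaved-PARP antibody-stained nuclei relative to all DNA-stained nuclei, imaged in 1,536-well plates. Screening doses were set so most cells survived, and baseline and induced cleaved-PARP levels vary greatly across cell lines.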
# System: WM115
# Test: cleaved PARP positive nuclei fraction relative to DMSO control; melanoma cells; higher = more apoptosis
# Settings: library dose: low library concentration; 72 h
row,SMILES,cleaved PARP positive nuclei fraction
1,"CC1(C)CCC(c2ccc(Cl)cc2)=C(CN2CCN(c3ccc(C(=O)NS(=O)(=O)c4ccc(N[C@H](CCN5CCOCC5)CSc5ccccc5)c(S(=O)(=O)C(F)(F)F)c4)cc3)CC2)C1 + COCC[n+]1c2c(n(Cc3cnccn3)c1C)C(=O)c1ccccc1C2=O [YM155] (first compound 0.4 µM, partner dose 0.0004 µM)",207%
2,"Cn1sc(=O)n(Cc2ccccc2)c1=O + CS(=O)(=O)CCNCc1ccc(-c2ccc3ncnc(Nc4ccc(OCc5cccc(F)c5)c(Cl)c4)c3c2)o1 [lapatinib] (first compound 0.4 µM, partner dose 0.8 µM)",144%
3,"Cn1cnc2c(F)c(Nc3ccc(Br)cc3Cl)c(C(=O)NOCCO)cc21 [selumetinib] + Nc1nc(F)nc2c1ncn2[C@@H]1O[C@H](CO)[C@@H](O)[C@@H]1O [fludarabine] (first compound 0.015 µM, partner dose 0.2 µM)",74.6%
4,"CS(=O)(=O)c1ccc(C(=O)Nc2ccc(Cl)c(-c3ccccn3)c2)c(Cl)c1 [vismodegib] + CC(C)C[C@H](NC(=O)[C@H](Cc1ccccc1)NC(=O)c1cnccn1)B(O)O [Bortezomib] (first compound 1 µM, partner dose 0.001 µM)",61.4%
5,"CC1(C)CCC(c2ccc(Cl)cc2)=C(CN2CCN(c3ccc(C(=O)NS(=O)(=O)c4ccc(N[C@H](CCN5CCOCC5)CSc5ccccc5)c(S(=O)(=O)C(F)(F)F)c4)cc3)CC2)C1 + C=C(c1ccc(C(=O)O)cc1)c1cc2c(cc1C)C(C)(C)CCC2(C)C [Bexarotene] (first compound 0.4 µM, partner dose 2 µM)",240%
6,"CS(=O)(=O)c1ccc(C(=O)Nc2ccc(Cl)c(-c3ccccn3)c2)c(Cl)c1 [vismodegib] + CC(=O)c1c(C)c2cnc(Nc3ccc(N4CCNCC4)cn3)nc2n(C2CCCC2)c1=O [palbociclib] (first compound 1 µM, partner dose 0.04 µM)",104%
7,"NC(=O)c1ccc(N(C(N)=O)c2c(F)cccc2F)nc1-c1ccc(F)cc1F + C#Cc1cccc(Nc2ncnc3cc(OCCOC)c(OCCOC)cc23)c1 [erlotinib] (first compound 0.4 µM, partner dose 0.8 µM)",155%
8,"CS(=O)(=O)c1ccc(C(=O)Nc2ccc(Cl)c(-c3ccccn3)c2)c(Cl)c1 [vismodegib] + Nc1nc(F)nc2c1ncn2[C@@H]1O[C@H](CO)[C@@H](O)[C@@H]1O [fludarabine] (first compound 1 µM, partner dose 0.2 µM)",69.9%
9,"NC(=O)c1ccc(N(C(N)=O)c2c(F)cccc2F)nc1-c1ccc(F)cc1F + C=CCNC1=C2C[C@@H](C)C[C@H](OC)[C@H](O)[C@@H](C)/C=C(\C)[C@H](OC(N)=O)[C@@H](OC)/C=C\C=C(/C)C(=O)NC(=CC1=O)C2=O [Tanespimycin] (first compound 0.4 µM, partner dose 0.002 µM)",154%
10,"CC(=O)O[C@@]12CO[C@@H]1C[C@H](O)[C@@]1(C)C(=O)[C@H](O)C3=C(C)[C@@H](OC(=O)[C@H](O)[C@@H](NC(=O)OC(C)(C)C)c4ccccc4)C[C@@](O)([C@@H](OC(=O)c4ccccc4)[C@H]21)C3(C)C [Docetaxel] + C=C(c1ccc(C(=O)O)cc1)c1cc2c(cc1C)C(C)(C)CCC2(C)C [Bexarotene] (first compound 0.0001 µM, partner dose 2 µM)",495%
11,"CC(=O)O[C@@]12CO[C@@H]1C[C@H](O)[C@@]1(C)C(=O)[C@H](O)C3=C(C)[C@@H](OC(=O)[C@H](O)[C@@H](NC(=O)OC(C)(C)C)c4ccccc4)C[C@@](O)([C@@H](OC(=O)c4ccccc4)[C@H]21)C3(C)C [Docetaxel] + C[C@]1(c2nc3c(C(N)=O)cccc3[nH]2)CCCN1 [Veliparib] (first compound 0.0001 µM, partner dose 1.4 µM)",320%
12,"CCN(CC)CCNC(=O)c1c(C)[nH]c(/C=C2\C(=O)Nc3ccc(F)cc32)c1C [sunitinib] + OCc1c[nH]c2ccccc12 [Indole-3-carbinol] (first compound 0.4 µM, partner dose 0.8 µM)",137%

# Copied from above, entries 5–7
row,SMILES,cleaved PARP positive nuclei fraction
5,"CC1(C)CCC(c2ccc(Cl)cc2)=C(CN2CCN(c3ccc(C(=O)NS(=O)(=O)c4ccc(N[C@H](CCN5CCOCC5)CSc5ccccc5)c(S(=O)(=O)C(F)(F)F)c4)cc3)CC2)C1 + C=C(c1ccc(C(=O)O)cc1)c1cc2c(cc1C)C(C)(C)CCC2(C)C [Bexarotene] (first compound 0.4 µM, partner dose 2 µM)",240%
6,"CS(=O)(=O)c1ccc(C(=O)Nc2ccc(Cl)c(-c3ccccn3)c2)c(Cl)c1 [vismodegib] + CC(=O)c1c(C)c2cnc(Nc3ccc(N4CCNCC4)cn3)nc2n(C2CCCC2)c1=O [palbociclib] (first compound 1 µM, partner dose 0.04 µM)",104%
7,"NC(=O)c1ccc(N(C(N)=O)c2c(F)cccc2F)nc1-c1ccc(F)cc1F + C#Cc1cccc(Nc2ncnc3cc(OCCOC)c(OCCOC)cc23)c1 [erlotinib] (first compound 0.4 µM, partner dose 0.8 µM)",155%
